Measurements reported in PubChem BioAssay AID686943 (Drosophila RNAi Screening Center, 2013)

- Screen: 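Search across the genome for regulators of signalling from receptor tyrosine kinase to ERK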 (primary screen)
- System: Drosophila S2R+ haemocyte-like cells expressing YFP-tagged ERK (Rolled)
- Reagent: long dsRNA against Drosophila genes
- Conditions: insulin stimulation versus unstimulated cells; dose and duration not given
- Detection: 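Antibody staining for doubly phosphorylated ERK divided by ERK-YFP signal, as plate z-scores, in insulin-treated and untreated cells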
- Scale: replicate 1, z-score of dpERK with insulin: higher = more active ERK per ERK-YFP after insulin
The screen tested about 23,000 reagents; below is a random part of those that have a named target and a result. 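Extra replicates exist only for a retested subset of genes; insulin dose and duration not given; both raised and lowered dpERK matter.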 Names joined by + are all predicted targets of the reagent. Further read-outs or replicates are left out here. Reagent sequences are not shown. The record does not give: the amount of reagent, the time to read-out.

His-Psi:CR31616 + His-Psi:CR31615 [DRSC03760] showed replicate 1, z-score of dpERK with insulin -7.77.
Depletion of PMCA (plasma membrane calcium ATPase) [DRSC17113] came out at: replicate 1, z-score of dpERK with insulin 0.
With knock-down of PMCA (plasma membrane calcium ATPase) [DRSC17114], the record shows replicate 1, z-score of dpERK with insulin 0.62.
For PMCA (plasma membrane calcium ATPase) [DRSC17154], the values are replicate 1, z-score of dpERK with insulin -0.95.
With knock-down of CG32453 [DRSC21673], the record shows replicate 1, z-score of dpERK with insulin 0.27.
Depletion of SkpD (SKP1-related D) [DRSC22208] resulted in: replicate 1, z-score of dpERK with insulin 0.46.
After knock-down of CG1785 [DRSC18139] the results were replicate 1, z-score of dpERK with insulin 0.19.
With knock-down of comm3 [DRSC09993] the results were replicate 1, z-score of dpERK with insulin 0.85.
comm3 [DRSC09994] scored replicate 1, z-score of dpERK with insulin -0.27.
comm3 [DRSC09995] showed replicate 1, z-score of dpERK with insulin 0.05.
For KdelR (KDEL receptor) [DRSC03353] the deposit lists replicate 1, z-score of dpERK with insulin -0.12.
Silencing of Tep4 (Thioester-containing protein 4) [DRSC03453] gave: replicate 1, z-score of dpERK with insulin -0.18.

A portion of the results above, as a working copy:
comm3 [DRSC09994] | replicate 1, z-score of dpERK with insulin = -0.27
comm3 [DRSC09995] | replicate 1, z-score of dpERK with insulin = 0.05
KdelR (KDEL receptor) [DRSC03353] | replicate 1, z-score of dpERK with insulin = -0.12

The results go on.
After knock-down of Ziz (Zizimin) [DRSC02506] the results were replicate 1, z-score of dpERK with insulin 0.03.
After knock-down of Ziz (Zizimin) [DRSC02976] the results were replicate 1, z-score of dpERK with insulin -0.15.
Silencing of CG9517 (retired record) [DRSC20192] gave: replicate 1, z-score of dpERK with insulin 0.48.
After knock-down of CG9517 (retired record) [DRSC20193], the record shows replicate 1, z-score of dpERK with insulin 1.12.
After knock-down of Tmem131 (Transmembrane protein 131) [DRSC07154] the results were replicate 1, z-score of dpERK with insulin -0.28.
Against CG3062 [DRSC18572], the values are replicate 1, z-score of dpERK with insulin -0.15.
JIL-1 (JIL-1 kinase) [DRSC11200] gave replicate 1, z-score of dpERK with insulin 4.22.
Against CG11756 [DRSC19424], the entry reads replicate 1, z-score of dpERK with insulin 0.02.
Depletion of CG34200 [DRSC04804] came out at: replicate 1, z-score of dpERK with insulin 1.27.
Against CG6244 [DRSC10609], the values are replicate 1, z-score of dpERK with insulin 0.19.
Depletion of CG33463 [DRSC22915] came out at: replicate 1, z-score of dpERK with insulin -0.1.
Depletion of CG31244 [DRSC21589] resulted in: replicate 1, z-score of dpERK with insulin -0.55.
For Dera (Deoxyribose-phosphate aldolase) [DRSC07207] the deposit lists replicate 1, z-score of dpERK with insulin 0.42.
Dera (Deoxyribose-phosphate aldolase) [DRSC21336] scored replicate 1, z-score of dpERK with insulin -0.78.
Against Cdc5 (Cell division cycle 5) [DRSC08577] the deposit lists replicate 1, z-score of dpERK with insulin 2.01.
For Art2 (Arginine methyltransferase 2) [DRSC00627], the values are replicate 1, z-score of dpERK with insulin -1.01.
With knock-down of egg (eggless) [DRSC04119], the screen gave replicate 1, z-score of dpERK with insulin -0.27.
egg (eggless) [DRSC22534] gave replicate 1, z-score of dpERK with insulin 1.14.
RpL41 (Ribosomal protein L41) [DRSC22958] scored replicate 1, z-score of dpERK with insulin 0.65.
